Data as given in PubChem BioAssay AID1671190 (National Center for Advancing Translational Sciences (NCATS), 2021).
Hit rate of the full screen: of about 580,000 compounds, about 6,100 (1.1%) were called active. Inconclusive results, whose numbers are uncertain, are shown with a selection of clear calls. Calls come from the whole dose curve; as a rule, active = well fitted inhibition curve with a large enough effect; inconclusive = small, poorly fitted or top-dose-only effect, or another doubt; inactive = no such curve, though single readings can be large or run the other way. Potencies beside an inconclusive call are fits to weak or partial responses and may not hold up.
% is set by controls: 0 for no effect and ±100 for the full control effect; potency is the fitted concentration of half-maximal effect.

Sequences of proteins named here, by UniProt entry; tags and fusion partners are left off.
UniProt P18054, whole entry, looked up: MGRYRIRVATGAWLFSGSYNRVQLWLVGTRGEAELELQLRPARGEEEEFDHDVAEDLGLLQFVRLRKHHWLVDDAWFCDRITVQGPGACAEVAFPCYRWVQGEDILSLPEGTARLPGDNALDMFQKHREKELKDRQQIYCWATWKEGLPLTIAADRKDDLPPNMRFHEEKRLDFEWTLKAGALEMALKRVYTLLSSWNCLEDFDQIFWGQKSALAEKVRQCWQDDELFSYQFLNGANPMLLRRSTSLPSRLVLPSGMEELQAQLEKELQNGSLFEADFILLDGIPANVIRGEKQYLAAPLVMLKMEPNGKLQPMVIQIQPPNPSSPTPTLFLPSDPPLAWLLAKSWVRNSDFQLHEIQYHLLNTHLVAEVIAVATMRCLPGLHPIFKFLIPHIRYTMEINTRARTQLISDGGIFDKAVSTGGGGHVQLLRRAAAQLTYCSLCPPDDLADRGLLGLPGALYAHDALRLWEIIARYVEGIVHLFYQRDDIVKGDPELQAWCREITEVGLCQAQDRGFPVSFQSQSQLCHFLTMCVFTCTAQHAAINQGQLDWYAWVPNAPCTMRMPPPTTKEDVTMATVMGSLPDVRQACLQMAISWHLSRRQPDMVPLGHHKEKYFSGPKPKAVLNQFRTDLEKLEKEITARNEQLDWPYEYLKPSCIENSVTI

Each molecule was assayed against Polyunsaturated fatty acid lipoxygenase ALOX12 (Homo sapiens) (UniProt P18054) (assay: Primary qHTS assay for inhibitors of human arachidonate 12S-lipoxygenase (ALOX12): Round 2). Conditions: purified 12hLO, xylenol orange hydroperoxide absorbance; activity change, negative = inhibition: at 108 µM (top of the series) unless noted.
How it was run: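 Hydroperoxide product was detected by ferrous iron/xylenol orange as the 573 to 405 nm absorbance ratio. Arachidonic acid at 40 uM (final) was turned over for 30 min at room temperature by 150 nM human 12hLO, pH 7.0 Hepes buffer, after 15 min compound preincubation.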
For `N#CC1=C(N)Oc2c(oc(CO)cc2=O)C1c1cccc(C(F)(F)F)c1` (centres undefined), the Potency was inconclusive: 79.4 µM [inhibitor, single point]. For `COc1ccc(CNC(=O)c2c(O)nc3c(C)cccn3c2=O)cc1`, the “activity change, negative = inhibition” value was inactive: -32.6%. For `CN(C)c1ccc(CNC(=O)CCCN2C(=O)c3cccnc3Oc3ccc(Cl)cc32)cc1`, the Potency was inconclusive: 158 µM [inhibitor, partial curve, poor fit]. For `CC(=O)C1=C(O)C(=O)N(c2cccc(Br)c2)C1c1ccc(Br)cc1` (centres undefined), the Potency was inconclusive: 44.7 µM [inhibitor, partial curve, poor fit]. `Cn1c(=O)c2c(nc(N/N=C/c3cccs3)n2Cc2ccccc2)n(C)c1=O` was tested, and the “activity change, negative = inhibition” value was inactive: 6.68%. For `CC(NC(=O)CSc1nnc(COc2ccc(Cl)cc2)n1C)c1ccc2ccccc2c1` (centres undefined), the “activity change, negative = inhibition” value was inactive: -27.9%. With `O=C(/C=C/c1ccc(-c2ccc(Cl)c(Cl)c2)o1)c1ccc(Cl)cc1` the Potency was inconclusive: 20 µM [inhibitor, partial curve, poor fit]. `COc1cc(OC)cc(-c2nn3c(CN4CCCCC4)nnc3s2)c1` was tested, and the Potency was inconclusive: 79.4 µM [inhibitor, partial curve, poor fit]. In the case of `O=C(/C=C/c1cccc([N+](=O)[O-])c1)OCC(=O)c1ccc(OC(F)F)cc1OC(F)F`, the “activity change, negative = inhibition” value is reported as inactive: -18.5%. `Cc1ccc(C(=O)/C=C/c2c(C)n[nH]c2C)cc1C` was tested, and the Potency was inconclusive: 2.82 µM [inhibitor, full curve, poor fit]. With `COc1cc2nc(Nc3cccc(F)c3)nc(N)c2cc1OC` the Potency was inconclusive: 2.82 µM [inhibitor, partial curve, poor fit]. With `CCCCOc1ccc(C(=O)N/C(=C/C=C/c2ccccc2)C(=O)NCCO)cc1` the Potency was inconclusive: 112 µM [inhibitor, single point]. `CCCCN1Cc2cc(C(=O)c3cc(OC)ccc3O)cnc2NC1=O` was tested, and the Potency was inconclusive: 56.2 µM [inhibitor, partial curve, poor fit]. `O=C(NCc1ccncc1)c1cc(C2CC2)nc2c1c(C1CCCN1)nn2-c1ccccc1` (centres undefined) was tested, and the Potency was inconclusive: 12.6 µM [inhibitor, full curve]. `O=C(Cc1ccccc1)N1CCCC1c1ccccc1` (centres undefined) was tested, and the “activity change, negative = inhibition” value was inactive: -11%. In the case of `CCOC(=O)COc1ccc2c(=O)c(Oc3ccc(OC)cc3)c(C)oc2c1`, the “activity change, negative = inhibition” value is reported as inactive: 8.21%. For `Cc1ccc(/C=C/C(=O)NCCc2cccc(Cl)c2)o1`, the Potency was inconclusive: 3.98 µM [inhibitor, full curve, poor fit]. `COc1ccc(OCC(=O)Nc2ccc(N3CCN(C(=O)c4ccco4)CC3)cc2)cc1` was tested, and the “activity change, negative = inhibition” value was inactive: 19.4%. `CCOC(=O)N[C@H](Cc1c[nH]c2ccccc12)C(=O)Nc1cccc(Cl)c1` was tested, and the Potency was inconclusive: 39.8 µM [inhibitor, partial curve, poor fit]. For `CCOC(=O)COc1ccc2cc(-c3ccccc3)c(=O)oc2c1`, the “activity change, negative = inhibition” value was inactive: 40.7%. For `CCc1ccc(C2CC(=O)Nc3c2c(=O)n(C)c2ncnn32)cc1` (centres undefined), the Potency was inconclusive: 56.2 µM [inhibitor, partial curve, poor fit]. With `COCCn1c(C)cnc1CCNC(=O)NCC(C)C` the Potency was inconclusive: 5.62 µM [inhibitor, full curve, poor fit]. With `CC(C)n1nc(-c2cc3cc(O)ccc3[nH]2)c2c(N)ncnc21` the activity change, negative = inhibition was inactive: -8.14% [at 22.9 µM]. For `CCOc1ccccc1N1CSC2=C(C#N)C(c3c(OC)ccc4ccccc34)CC(=O)N2C1` (centres undefined), the Potency was active: 3.16 µM. For `O=c1cc(CSc2ccccc2NS(=O)(=O)c2ccc(F)cc2)nc2ccc(Cl)cn12`, the “activity change, negative = inhibition” value was inactive: -27.4%. With `Cc1cnc(-c2ccccc2)n1CCNC(=O)NCc1ccccc1` the “activity change, negative = inhibition” value was inactive: 36%. In the case of `Cc1cc(-c2csc(N)n2)c(C)n1-c1ccccc1`, the Potency is reported as inconclusive: 50.1 µM [inhibitor, partial curve, poor fit]. In the case of `CNC(=O)[C@@H](c1ccccc1F)N1CCC[C@H]1C(=O)NCc1cccnc1`, the Potency is reported as inconclusive: 10 µM [inhibitor, partial curve, poor fit]. `O=C(Cc1ccc([N+](=O)[O-])cc1)NCCc1ccc2c(c1)OCO2` was tested, and the Potency was inconclusive: 79.4 µM [inhibitor, partial curve, poor fit]. For `Cn1cccc1C(=O)N1CCC2(CC1)CN(C(=O)Nc1cccc(F)c1)C2`, the Potency was inconclusive: 35.5 µM [inhibitor, single point]. With `CCn1c(CN2CCN(C)CC2)nc2cc(NC(=O)c3ccc([N+](=O)[O-])cc3)ccc21` the “activity change, negative = inhibition” value was inactive: -16%. In the case of `COc1cccc(CNS(=O)(=O)c2cc(Br)ccc2Br)c1OC`, the Potency is reported as inconclusive: 39.8 µM [inhibitor, single point]. With `O=C(CC(F)(F)F)NCCc1noc(-c2cccnc2)n1` the “activity change, negative = inhibition” value was inactive: 38.5%. In the case of `CCCCCCSc1ccc([C@@H]2[C@@H]3C(=O)N(C)C(=O)[C@@H]3[C@]3(C(=O)OC)CCCCN23)cc1OC`, the Potency is reported as inconclusive: 31.6 µM [inhibitor, partial curve, poor fit]. With `O=C(N[C@H]1CCN2C(=O)c3cc(-c4ccccc4)ccc3NC(=O)[C@H]12)C1CCCC1` the Potency was inconclusive: 28.2 µM [inhibitor, full curve, poor fit]. In the case of `CCOc1ccccc1NC(=O)c1ccc2c(=O)n3c(nc2c1)CCCCC3`, the “activity change, negative = inhibition” value is reported as inactive: 16.6%. For `N#Cc1ccc(C(=O)N2CC[C@@H](CC(=O)O)[C@@H](CC3=NCCc4ccccc43)C2)cc1`, the “activity change, negative = inhibition” value was inactive: -5.4% [at 176 µM]. For `Cc1ccc(-n2nc3c(=O)n(CCCC(=O)NCc4ccc(Cl)cc4)nc(C)c3c2C)cc1`, the “activity change, negative = inhibition” value was inactive: -1.57%. In the case of `Cc1ccc(NC(=O)C(=O)c2c(C)[nH]c3ccccc23)cc1`, the Potency is reported as inconclusive: 112 µM [inhibitor, single point]. With `N#C/C(=C\c1ccc[nH]1)C(=O)N1CCCCC1` the “activity change, negative = inhibition” value was inactive: 0%. `Cc1nnc(NC(=O)CSc2ccc(-c3cccnc3)nn2)s1` was tested, and the “activity change, negative = inhibition” value was inactive: -11.5%. With `Cc1c(C#N)c2ccccc2n1CC(=O)NC1CCOC2(CCOCC2)C1` (centres undefined) the “activity change, negative = inhibition” value was inactive: 50.3%. For `O=C(CCCN1C(=O)/C(=C/c2ccco2)SC1=S)Nc1ccccc1C(=O)O`, the Potency was active: 31.6 µM. In the case of `COCC(=O)Nc1cc(C(=O)N2CCN(C(C)=O)CC2)c2c(c1)ncn2Cc1ccc(F)cc1`, the “activity change, negative = inhibition” value is reported as inactive: 64.2%. With `CCOC(=O)C1CCCN(Cc2cccc(Cl)c2)C1` (centres undefined) the Potency was inconclusive: 1.41 µM [inhibitor, full curve, poor fit]. With `COc1ccc(-c2cnc3c(c2)CCC3(C#N)C#N)cc1` the “activity change, negative = inhibition” value was inactive: -1.93%. In the case of `CC1CCC2(CC1)NC(=O)N(CC(=O)Nc1cc(F)cc(F)c1)C2=O` (centres undefined), the Potency is reported as inconclusive: 22.4 µM [inhibitor, full curve, poor fit]. `CN(C)c1ccc(/C=C(\C#N)C(=O)OCC(=O)N(C)C2CCS(=O)(=O)C2)cc1` (centres undefined) was tested, and the Potency was inconclusive: 79.4 µM [inhibitor, partial curve, poor fit]. With `Cc1ccc(NC(=O)CN(C)S(=O)(=O)c2cccc3nsnc23)cc1Cl` the activity change, negative = inhibition was inconclusive: -42.9% [inhibitor]. For `C#CCN1CCCCC1C(=O)NCC1CCCCC1` (centres undefined), the Potency was inconclusive: 44.7 µM [inhibitor, partial curve, poor fit]. In the case of `Cc1ccc(C)c(CS(=O)(=O)c2cn(CC(=O)N3CCCCC3)c3ccccc23)c1`, the “activity change, negative = inhibition” value is reported as inactive: -0.843%. For `Cc1nn(-c2ccccc2)c(Cl)c1/C=C/C(=O)c1ccc(O)cc1`, the Potency was inconclusive: 79.4 µM [inhibitor, single point]. In the case of `NS(=O)(=O)c1ccc(N/N=C/c2ccc(O)cc2O)c([N+](=O)[O-])c1`, the “activity change, negative = inhibition” value is reported as inactive: -2.15%. `COC(=O)CSc1nnc(-c2sc3ccccc3c2Cl)o1` was tested, and the “activity change, negative = inhibition” value was inactive: 27.5%. For `O=C(Nc1cccc(C(F)(F)F)c1)N1CCN(Cc2ccc(Cl)s2)CC1`, the Potency was inconclusive: 12.6 µM [inhibitor, full curve, poor fit]. With `COc1ccc(-c2cc(C[C@H]3CNCC[C@H]3CC(=O)O)no2)cc1` the Potency was inconclusive: 35.5 µM [inhibitor, single point]. `O=C(NCC[C@@H]1CC[C@@H](NC(=O)c2cnccn2)[C@@H](CO)O1)c1ccc2c(c1)OCO2` was tested, and the Potency was inconclusive: 112 µM [inhibitor, single point]. For `Cc1ccc(C2/C(=C(/O)c3ccc(Cl)cc3)C(=O)C(=O)N2CC2CCCO2)o1` (centres undefined), the Potency was inconclusive: 39.8 µM [inhibitor, single point]. In the case of `Cc1ccc2nc(-c3ccc(NS(C)(=O)=O)cc3)cc(-c3ccccc3)c2c1`, the Potency is reported as inconclusive: 39.8 µM [inhibitor, partial curve]. `Cc1cc(-c2nnc(SCc3cccnc3)o2)no1` was tested, and the Potency was inconclusive: 2 µM [inhibitor, full curve, poor fit]. `CC1Cc2ccccc2N1C(=O)c1cccc(S(=O)(=O)Nc2ccccc2F)c1` (centres undefined) was tested, and the Potency was inconclusive: 56.2 µM [inhibitor, partial curve, poor fit]. `O=C(c1ccc2c(c1)OCO2)N1CCc2ccccc2C1` was tested, and the Potency was inconclusive: 7.94 µM [inhibitor, full curve, poor fit]. `O=[N+]([O-])C(=C1Nc2ccccc2N1)/C(Cl)=C(/Cl)Br` was tested, and the Potency was inconclusive: 35.5 µM [inhibitor, partial curve]. In the case of `COc1ccc(N2CCN(C(=O)CSc3ncccc3-c3nc4ccccc4[nH]3)CC2)cc1`, the Potency is reported as inconclusive: 14.1 µM [inhibitor, partial curve, poor fit]. With `COc1cc(/C=N/O)c(Br)c(Br)c1OC` the “activity change, negative = inhibition” value was inactive: 8.31%. In the case of `CCc1ccccc1N(C(=O)c1cccs1)C1C=CS(=O)(=O)C1` (centres undefined), the “activity change, negative = inhibition” value is reported as inactive: -1.14%. In the case of `N#Cc1ccc(-c2csc(C3CC3)n2)cc1`, the Potency is reported as inconclusive: 28.2 µM [inhibitor, partial curve, poor fit]. `Cc1ccc(-n2c(C)cc(/C=C(\C#N)C(=O)Nc3ccc(C)c(C)c3)c2C)cc1` was tested, and the activity change, negative = inhibition was inconclusive: -31.2% [inhibitor]. For `NC(Cc1ccc(C(F)(F)F)cc1)c1csc(NC(=O)Nc2ccccc2Cc2ccccc2)n1` (centres undefined), the Potency was inconclusive: 100 µM [inhibitor, single point].
